Values of other authors as cited in patent publication US20250312394A1, “Lacticaseibacillus Rhamnosus DY801 and Application Thereof” (priority 2024, published 2025).
Values after ≈ are worked out from the molar mass of the structure shown. For at least one compound, name, drawing or mass did not settle the structure.

Tested on: Lacticaseibacillus rhamnosus DY801
Settings: bacterial resistance criteria of the General Standard of Probiotics for Food Use; cited from earlier work

| Compound | MIC in the General Standard |
| --- | --- |
| CCC[C@@H]1C[C@@H](C(=O)N[C@@H]([C@H]2O[C@H](SC)[C@H](O)[C@@H](O)[C@H]2O)[C@H](C)Cl)N(C)C1 [clindamycin] | 4 µg/mL (≈ 9.41 µM) |
| CN(C)[C@@H]1C(O)=C(C(N)=O)C(=O)[C@@]2(O)C(O)=C3C(=O)c4c(O)cccc4[C@@](C)(O)[C@H]3C[C@@H]12 [tetracycline] | 8 µg/mL (≈ 18 µM) |
